Measured values taken from paper doi:10.1101/2022.09.10.507391.

The chains behind the UniProt entries cited, without tags or fusion partners. Where a name states a change or a piece, a line headed by the entry shows the natural chain unless it says otherwise.
UniProt B8GX61: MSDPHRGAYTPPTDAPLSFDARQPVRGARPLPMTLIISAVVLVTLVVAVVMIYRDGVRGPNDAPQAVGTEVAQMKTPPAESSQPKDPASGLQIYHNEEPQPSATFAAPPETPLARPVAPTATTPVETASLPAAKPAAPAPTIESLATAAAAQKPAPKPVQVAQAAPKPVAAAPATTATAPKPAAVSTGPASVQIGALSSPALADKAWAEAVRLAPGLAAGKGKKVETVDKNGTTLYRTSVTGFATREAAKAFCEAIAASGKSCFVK
UniProt A0A0H3C9I3: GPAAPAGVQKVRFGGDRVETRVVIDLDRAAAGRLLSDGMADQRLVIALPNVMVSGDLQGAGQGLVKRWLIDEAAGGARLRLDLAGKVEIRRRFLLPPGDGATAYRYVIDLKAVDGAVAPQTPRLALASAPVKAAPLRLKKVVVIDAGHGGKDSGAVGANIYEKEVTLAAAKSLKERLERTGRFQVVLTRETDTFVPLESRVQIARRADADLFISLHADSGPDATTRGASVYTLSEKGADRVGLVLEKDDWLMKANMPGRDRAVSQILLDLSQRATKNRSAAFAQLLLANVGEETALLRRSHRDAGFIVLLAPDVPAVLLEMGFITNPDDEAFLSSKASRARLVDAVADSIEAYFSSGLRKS

Each substance was assayed against DipM-FLAG (C. crescentus) (assay: affinity purification with mass spectrometry).

binding, binds:
FtsN (from UniProt B8GX61)
SdpA (from UniProt A0A0H3C7P1) (enzyme)
AmiC (from UniProt A0A0H3C9I3) (enzyme)

No constants are given. Whether binding was seen depends on the method and setting. Binding seen in cells or lysates may run through a third protein. Here binding means that the protein was enriched with, or labelled near, the bait; the list need not be complete.
